The supplement of paper PMC12823440, “Inhibitors supercharge kinase turnover through native proteolytic circuits” (Nature, 2025)
Structures can show the parent of a compound that is named as a salt. Some of the results follow. The calls rarely recur for the same compound in another form.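 Kinases, fused to nanoluciferase, were expressed in K562 cells; luminescence was measured every 4 h from 2 to 18 h as percent of control (DMSO = 100%, positive control = 0%). A time point is decreased if signal falls significantly (2 sigma). Hits were called by the authors by a rule that is not shown; the count of time points alone does not decide it.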

By UniProt entry, the sequences of proteins in these tests, tags left out. Where a name states a change or a piece, a line headed by the entry shows the natural chain unless it says otherwise.
UniProt P00519, whole entry: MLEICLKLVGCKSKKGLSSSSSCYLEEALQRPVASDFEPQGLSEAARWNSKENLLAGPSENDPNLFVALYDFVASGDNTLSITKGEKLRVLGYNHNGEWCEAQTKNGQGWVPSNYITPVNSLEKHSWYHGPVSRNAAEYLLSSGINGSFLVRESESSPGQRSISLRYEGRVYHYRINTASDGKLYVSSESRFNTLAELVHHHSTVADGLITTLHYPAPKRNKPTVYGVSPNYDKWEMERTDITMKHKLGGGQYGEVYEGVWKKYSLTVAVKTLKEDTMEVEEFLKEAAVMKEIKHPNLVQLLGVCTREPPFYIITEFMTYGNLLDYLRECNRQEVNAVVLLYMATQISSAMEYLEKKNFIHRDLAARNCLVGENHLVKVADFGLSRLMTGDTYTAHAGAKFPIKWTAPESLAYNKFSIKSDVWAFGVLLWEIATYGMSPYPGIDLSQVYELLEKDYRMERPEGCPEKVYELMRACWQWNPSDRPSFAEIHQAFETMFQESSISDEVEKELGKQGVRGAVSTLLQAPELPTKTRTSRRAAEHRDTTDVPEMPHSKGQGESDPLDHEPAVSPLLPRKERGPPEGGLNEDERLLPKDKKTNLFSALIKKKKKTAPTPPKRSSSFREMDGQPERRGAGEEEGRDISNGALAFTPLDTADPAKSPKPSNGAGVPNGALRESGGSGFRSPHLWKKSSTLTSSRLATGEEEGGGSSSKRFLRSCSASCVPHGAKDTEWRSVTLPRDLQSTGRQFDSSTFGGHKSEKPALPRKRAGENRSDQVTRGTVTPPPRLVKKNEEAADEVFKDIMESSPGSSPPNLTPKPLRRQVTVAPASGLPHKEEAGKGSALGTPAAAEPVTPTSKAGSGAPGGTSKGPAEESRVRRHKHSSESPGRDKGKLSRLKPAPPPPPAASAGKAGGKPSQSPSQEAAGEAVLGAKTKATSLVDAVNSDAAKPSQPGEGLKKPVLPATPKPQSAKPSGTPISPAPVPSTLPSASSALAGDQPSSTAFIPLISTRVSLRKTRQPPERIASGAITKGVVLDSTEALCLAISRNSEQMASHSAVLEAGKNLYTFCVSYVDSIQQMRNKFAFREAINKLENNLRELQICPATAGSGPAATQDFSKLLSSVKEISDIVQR
UniProt P31749: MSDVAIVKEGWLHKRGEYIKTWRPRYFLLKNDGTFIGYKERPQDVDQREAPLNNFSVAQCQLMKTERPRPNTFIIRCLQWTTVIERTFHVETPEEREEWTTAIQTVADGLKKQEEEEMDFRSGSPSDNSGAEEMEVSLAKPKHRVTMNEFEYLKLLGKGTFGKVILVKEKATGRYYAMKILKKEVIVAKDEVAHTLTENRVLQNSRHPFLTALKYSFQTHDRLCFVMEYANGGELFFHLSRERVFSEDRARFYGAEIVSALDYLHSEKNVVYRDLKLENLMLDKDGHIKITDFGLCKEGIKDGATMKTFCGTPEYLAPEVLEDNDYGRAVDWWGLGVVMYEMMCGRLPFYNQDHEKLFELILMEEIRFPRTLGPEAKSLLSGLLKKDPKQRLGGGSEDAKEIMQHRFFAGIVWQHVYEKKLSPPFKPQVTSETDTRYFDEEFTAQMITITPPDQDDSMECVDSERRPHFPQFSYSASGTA
UniProt Q9UM73: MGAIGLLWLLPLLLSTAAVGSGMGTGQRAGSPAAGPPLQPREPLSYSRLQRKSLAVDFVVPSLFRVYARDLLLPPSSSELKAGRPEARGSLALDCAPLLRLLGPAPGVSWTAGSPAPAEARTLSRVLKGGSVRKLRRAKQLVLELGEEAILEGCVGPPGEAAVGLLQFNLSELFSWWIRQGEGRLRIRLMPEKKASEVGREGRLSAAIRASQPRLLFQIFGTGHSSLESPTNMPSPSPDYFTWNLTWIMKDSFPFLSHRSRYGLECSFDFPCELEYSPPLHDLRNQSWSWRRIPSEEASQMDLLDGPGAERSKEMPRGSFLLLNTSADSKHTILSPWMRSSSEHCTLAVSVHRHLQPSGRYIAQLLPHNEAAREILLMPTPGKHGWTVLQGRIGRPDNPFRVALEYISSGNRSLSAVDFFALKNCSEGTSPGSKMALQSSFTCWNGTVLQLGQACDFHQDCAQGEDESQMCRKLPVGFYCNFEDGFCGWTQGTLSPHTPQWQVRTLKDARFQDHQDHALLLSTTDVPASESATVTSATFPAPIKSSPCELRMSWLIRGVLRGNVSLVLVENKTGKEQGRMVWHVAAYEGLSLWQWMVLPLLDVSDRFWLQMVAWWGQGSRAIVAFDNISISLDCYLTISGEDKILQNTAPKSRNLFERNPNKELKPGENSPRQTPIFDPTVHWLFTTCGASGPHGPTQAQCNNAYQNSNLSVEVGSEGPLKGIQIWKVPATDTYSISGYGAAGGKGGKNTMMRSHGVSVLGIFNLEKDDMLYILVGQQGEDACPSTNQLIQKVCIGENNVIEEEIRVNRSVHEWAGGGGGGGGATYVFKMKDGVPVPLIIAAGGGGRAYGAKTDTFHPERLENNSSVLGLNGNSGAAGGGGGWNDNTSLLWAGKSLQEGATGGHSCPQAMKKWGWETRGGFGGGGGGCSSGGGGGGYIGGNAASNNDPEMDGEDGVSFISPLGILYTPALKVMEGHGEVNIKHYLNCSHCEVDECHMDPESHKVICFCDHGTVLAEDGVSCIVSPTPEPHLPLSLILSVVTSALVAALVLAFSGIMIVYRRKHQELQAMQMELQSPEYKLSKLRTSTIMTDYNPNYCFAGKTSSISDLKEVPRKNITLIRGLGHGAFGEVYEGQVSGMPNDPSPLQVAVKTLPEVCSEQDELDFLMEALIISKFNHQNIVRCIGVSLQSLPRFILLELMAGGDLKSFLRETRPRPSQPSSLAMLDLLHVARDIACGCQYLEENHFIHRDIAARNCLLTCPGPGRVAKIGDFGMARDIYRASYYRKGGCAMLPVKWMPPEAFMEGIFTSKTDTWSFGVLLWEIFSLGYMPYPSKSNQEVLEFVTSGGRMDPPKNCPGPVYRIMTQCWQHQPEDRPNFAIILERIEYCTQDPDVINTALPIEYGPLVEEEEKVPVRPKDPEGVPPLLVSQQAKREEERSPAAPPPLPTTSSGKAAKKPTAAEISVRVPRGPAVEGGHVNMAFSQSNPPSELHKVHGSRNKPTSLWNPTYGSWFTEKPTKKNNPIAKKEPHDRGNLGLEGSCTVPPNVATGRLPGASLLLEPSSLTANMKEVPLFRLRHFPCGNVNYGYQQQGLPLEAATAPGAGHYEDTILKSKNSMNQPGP
UniProt P10398: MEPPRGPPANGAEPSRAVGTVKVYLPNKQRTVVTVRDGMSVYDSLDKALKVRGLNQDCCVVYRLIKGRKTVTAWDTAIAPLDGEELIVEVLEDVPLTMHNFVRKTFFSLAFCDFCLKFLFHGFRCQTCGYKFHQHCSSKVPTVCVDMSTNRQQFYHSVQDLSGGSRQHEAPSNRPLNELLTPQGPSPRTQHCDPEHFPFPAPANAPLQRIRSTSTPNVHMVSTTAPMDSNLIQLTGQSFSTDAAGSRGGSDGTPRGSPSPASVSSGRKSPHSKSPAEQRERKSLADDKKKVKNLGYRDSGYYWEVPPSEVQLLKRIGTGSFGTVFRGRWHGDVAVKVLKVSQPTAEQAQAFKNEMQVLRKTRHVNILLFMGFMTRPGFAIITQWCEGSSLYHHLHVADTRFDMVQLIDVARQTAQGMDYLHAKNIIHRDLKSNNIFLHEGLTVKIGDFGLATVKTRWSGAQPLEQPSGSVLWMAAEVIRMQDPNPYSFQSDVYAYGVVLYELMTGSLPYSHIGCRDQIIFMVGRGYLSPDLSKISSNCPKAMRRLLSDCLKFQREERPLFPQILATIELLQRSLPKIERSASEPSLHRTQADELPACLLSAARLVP
UniProt O14965: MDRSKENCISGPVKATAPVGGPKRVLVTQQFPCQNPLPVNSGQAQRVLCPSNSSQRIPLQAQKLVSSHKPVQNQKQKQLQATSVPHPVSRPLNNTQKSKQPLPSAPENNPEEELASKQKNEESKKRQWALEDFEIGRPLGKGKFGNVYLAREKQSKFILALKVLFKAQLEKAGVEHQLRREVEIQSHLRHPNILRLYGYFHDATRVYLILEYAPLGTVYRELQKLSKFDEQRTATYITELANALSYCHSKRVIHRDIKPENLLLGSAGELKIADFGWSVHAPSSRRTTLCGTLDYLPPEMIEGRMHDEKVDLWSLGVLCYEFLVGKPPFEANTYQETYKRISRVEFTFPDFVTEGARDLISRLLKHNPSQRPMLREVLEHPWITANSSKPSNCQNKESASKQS
UniProt Q9UQB9: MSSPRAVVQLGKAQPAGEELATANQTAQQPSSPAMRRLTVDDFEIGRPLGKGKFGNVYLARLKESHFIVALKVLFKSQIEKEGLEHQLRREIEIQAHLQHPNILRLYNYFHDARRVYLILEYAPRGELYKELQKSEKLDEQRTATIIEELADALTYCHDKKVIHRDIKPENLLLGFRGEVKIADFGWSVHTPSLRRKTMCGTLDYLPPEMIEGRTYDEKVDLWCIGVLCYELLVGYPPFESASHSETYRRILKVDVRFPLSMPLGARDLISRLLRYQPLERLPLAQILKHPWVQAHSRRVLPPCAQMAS
UniProt P51451: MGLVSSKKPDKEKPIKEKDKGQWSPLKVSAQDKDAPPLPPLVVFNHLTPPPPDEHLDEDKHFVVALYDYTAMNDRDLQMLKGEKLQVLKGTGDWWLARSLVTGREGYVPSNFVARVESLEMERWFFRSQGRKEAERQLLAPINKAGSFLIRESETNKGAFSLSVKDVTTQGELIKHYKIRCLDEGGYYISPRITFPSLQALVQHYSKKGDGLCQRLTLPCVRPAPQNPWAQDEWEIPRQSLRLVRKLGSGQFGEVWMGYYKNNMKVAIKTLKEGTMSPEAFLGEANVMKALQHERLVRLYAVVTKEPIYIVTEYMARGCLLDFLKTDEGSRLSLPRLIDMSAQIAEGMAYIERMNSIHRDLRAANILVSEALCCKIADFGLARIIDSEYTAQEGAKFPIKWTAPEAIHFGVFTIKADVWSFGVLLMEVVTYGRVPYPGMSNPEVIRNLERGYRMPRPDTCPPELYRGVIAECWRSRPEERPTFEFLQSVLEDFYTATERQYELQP
UniProt P51813: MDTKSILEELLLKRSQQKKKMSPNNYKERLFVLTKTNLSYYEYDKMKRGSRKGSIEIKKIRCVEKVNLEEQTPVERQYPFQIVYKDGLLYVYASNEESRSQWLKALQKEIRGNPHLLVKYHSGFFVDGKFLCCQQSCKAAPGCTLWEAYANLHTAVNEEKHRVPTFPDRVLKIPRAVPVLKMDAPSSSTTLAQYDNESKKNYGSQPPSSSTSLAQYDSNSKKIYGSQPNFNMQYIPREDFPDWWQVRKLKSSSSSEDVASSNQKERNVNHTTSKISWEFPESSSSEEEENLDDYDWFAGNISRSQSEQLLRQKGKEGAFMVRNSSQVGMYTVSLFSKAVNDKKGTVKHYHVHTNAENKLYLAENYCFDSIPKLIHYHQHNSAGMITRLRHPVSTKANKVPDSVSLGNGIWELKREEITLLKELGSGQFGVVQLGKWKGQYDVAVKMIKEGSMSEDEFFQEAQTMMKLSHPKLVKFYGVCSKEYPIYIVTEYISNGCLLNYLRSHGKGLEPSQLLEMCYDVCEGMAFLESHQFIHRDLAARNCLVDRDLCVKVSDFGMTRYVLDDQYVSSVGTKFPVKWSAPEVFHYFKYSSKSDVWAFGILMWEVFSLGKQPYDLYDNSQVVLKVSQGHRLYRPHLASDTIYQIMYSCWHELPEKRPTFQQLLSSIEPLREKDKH
UniProt P15056, whole entry, looked up: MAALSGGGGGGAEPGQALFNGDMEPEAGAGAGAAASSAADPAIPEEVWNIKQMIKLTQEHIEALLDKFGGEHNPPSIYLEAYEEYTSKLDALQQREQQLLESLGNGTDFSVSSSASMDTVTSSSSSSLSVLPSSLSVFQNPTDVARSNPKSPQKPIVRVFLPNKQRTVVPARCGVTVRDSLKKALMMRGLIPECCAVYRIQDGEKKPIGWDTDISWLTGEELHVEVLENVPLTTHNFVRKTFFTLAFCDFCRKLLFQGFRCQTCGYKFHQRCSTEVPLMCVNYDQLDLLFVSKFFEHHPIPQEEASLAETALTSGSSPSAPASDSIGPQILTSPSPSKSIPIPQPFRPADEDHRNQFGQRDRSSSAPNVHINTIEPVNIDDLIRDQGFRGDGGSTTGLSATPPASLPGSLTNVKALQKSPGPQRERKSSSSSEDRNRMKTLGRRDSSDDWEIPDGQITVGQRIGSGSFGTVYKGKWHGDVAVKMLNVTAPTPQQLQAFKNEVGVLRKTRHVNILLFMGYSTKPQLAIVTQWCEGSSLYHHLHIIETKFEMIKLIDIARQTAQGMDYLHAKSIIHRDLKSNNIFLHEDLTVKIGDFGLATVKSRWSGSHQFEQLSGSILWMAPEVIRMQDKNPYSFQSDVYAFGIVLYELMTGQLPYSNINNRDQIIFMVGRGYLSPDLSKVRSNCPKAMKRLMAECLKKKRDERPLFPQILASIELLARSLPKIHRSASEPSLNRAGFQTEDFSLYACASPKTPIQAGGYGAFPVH

Experiments:
Assay in all cases: kinase-Nluc reporter destabilization hit call (1 = scored as downregulated) (binary); higher = compound decreases kinase abundance
Conditions in all cases: K562; 2-18 h
ABL1 = ABL1 (UniProt P00519)
AKT1 = AKT1 (UniProt P31749)
ALK = ALK (UniProt Q9UM73)
ARAF = ARAF (UniProt P10398)
AURKA = AURKA (UniProt O14965)
AURKB = AURKB (UniProt Q96GD4)
AURKC = AURKC (UniProt Q9UQB9)
BLK = BLK (UniProt P51451)
BMX = BMX (UniProt P51813)
BRAF = BRAF (UniProt P15056)

Measured: kinase-Nluc reporter destabilization hit call

COc1ccc(Br)cc1NC(=O)Nc1cccc2c1ccn2Cc1ccnc(N)c1 (2.5 µM)
inactive: ABL1 = 0 | AKT1 = 0 | ALK 0 | ARAF 0 | AURKA 0 | AURKB 0 | AURKC 0 | BLK 0 | BMX 0 | BRAF 0

Cc1cc(C(=O)NOCCO)c(Nc2ccc(I)cc2F)n(C)c1=O (10 µM)
inactive: ABL1 = 0 | AKT1 = 0 | ALK 0 | ARAF 0 | AURKA 0 | AURKB 0 | AURKC 0 | BLK 0 | BMX 0 | BRAF 0

CC(Sc1nc2c(cnn2-c2cccc(Cl)c2)c(=O)[nH]1)C(N)=O (stereo not given) (10 µM)
inactive: ABL1 = 0 | AKT1 = 0 | ALK 0 | ARAF 0 | AURKA 0 | AURKB 0 | AURKC 0 | BLK 0 | BMX 0 | BRAF 0

CN(C)c1ccc(-c2nc3ncc(Cl)c(N4CCN(CC(=O)Nc5nccs5)CC4)c3[nH]2)cc1 (2 µM)
inactive: ABL1 = 0 | AKT1 = 0 | ALK 0 | ARAF 0 | AURKA 0 | AURKB 0 | AURKC 0 | BLK 0 | BMX 0 | BRAF 0

COCCOc1ccc2c(c1)ncn2-c1ccc2cccc(N3CCC(N)CC3)c2n1 (10 µM)
inactive: ABL1 = 0 | AKT1 = 0 | ALK 0 | ARAF 0 | AURKA 0 | AURKB 0 | AURKC 0 | BLK 0 | BMX 0 | BRAF 0

CC(C)Oc1ccc(F)c(-c2cnc(N)c(C(=O)Nc3cnccc3N3CCC[C@@H](C(=O)O)C3)n2)c1 (2 µM)
inactive: ABL1 = 0 | AKT1 = 0 | ALK 0 | ARAF 0 | AURKA 0 | AURKB 0 | AURKC 0 | BLK 0 | BMX 0 | BRAF 0

Cc1cc([C@@H](C)Nc2ccccc2C(=O)O)c2nc(N3CCOCC3)cc(=O)n2c1 (10 µM)
inactive: ABL1 = 0 | AKT1 = 0 | ALK 0 | ARAF 0 | AURKA 0 | AURKB 0 | AURKC 0 | BLK 0 | BMX 0 | BRAF 0

Cc1cccc(COc2cccc(/C=C3\C(=O)NN(c4ccccc4)C3=O)c2)c1 (10 µM)
inactive: ABL1 = 0 | AKT1 = 0 | ALK 0 | ARAF 0 | AURKA 0 | AURKB 0 | AURKC 0 | BLK 0 | BMX 0 | BRAF 0

Nc1ncnc2c1nc(Br)n2[C@@H]1O[C@@H]2COP(=O)(O)O[C@H]2[C@H]1O [8-Bromo-cAMP sodium salt] (10 µM)
inactive: ABL1 = 0 | AKT1 = 0 | ALK 0 | ARAF 0 | AURKA 0 | AURKB 0 | AURKC 0 | BLK 0 | BMX 0 | BRAF 0

O=C(O)[C@H]1O[C@@H](Oc2cc3oc(-c4ccc(O)cc4)cc(=O)c3c(O)c2O)[C@H](O)[C@@H](O)[C@@H]1O [Scutellarin] (10 µM)
inactive: ABL1 = 0 | AKT1 = 0 | ALK 0 | ARAF 0 | AURKA 0 | AURKB 0 | AURKC 0 | BLK 0 | BMX 0 | BRAF 0

O=C1NC(=O)/C(=C\c2c[nH]c(=O)c(-c3ccc(N4CCNCC4)nc3)c2)S1 [Protein kinase inhibitors 1 hydrochloride] (10 µM)
inactive: ABL1 = 0 | AKT1 = 0 | ALK 0 | ARAF 0 | AURKA 0 | AURKB 0 | AURKC 0 | BLK 0 | BMX 0 | BRAF 0

CNC(=O)c1ccc2c(C(=Nc3cccc(CN(C)C)c3)c3ccccc3)c(O)[nH]c2c1 [MEK inhibitor] (10 µM)
inactive: ABL1 = 0 | AKT1 = 0 | ALK 0 | ARAF 0 | AURKA 0 | AURKB 0 | AURKC 0 | BLK 0 | BMX 0 | BRAF 0

COc1ccc(S(=O)(=O)Nc2cc(-c3c(O)ccc4ccccc34)c(O)c3ccccc23)cc1 (10 µM)
inactive: ABL1 = 0 | AKT1 = 0 | ALK 0 | ARAF 0 | AURKA 0 | AURKB 0 | AURKC 0 | BLK 0 | BMX 0 | BRAF 0

c1ccc(Cn2c(-c3ccc(OC[C@H](C4CCNCC4)n4c(-c5ccccc5)nc5ccccc54)cc3)nc3ccccc32)cc1 [Deltarasin] (2.5 µM)
inactive: ABL1 = 0 | AKT1 = 0 | ALK 0 | ARAF 0 | AURKA 0 | AURKB 0 | AURKC 0 | BLK 0 | BMX 0 | BRAF 0

COc1cc(N2CCC(N3CCN(C)CC3)CC2)ccc1Nc1ncc(Cl)c(-c2c[nH]c3ccccc23)n1 (2.5 µM)
inactive: ABL1 = 0 | AKT1 = 0 | ALK 0 | ARAF 0 | AURKA 0 | AURKB 0 | AURKC 0 | BLK 0 | BMX 0 | BRAF 0

COc1cc2cc(Oc3ccc4ccc(=O)oc4c3)c(=O)oc2cc1O [Daphnoretin] (10 µM)
inactive: ABL1 = 0 | AKT1 = 0 | ALK 0 | ARAF 0 | AURKA 0 | AURKB 0 | AURKC 0 | BLK 0 | BMX 0 | BRAF 0

O=c1cc(N2CCOCC2)oc2c(-c3ccc4c(c3)OCCO4)csc12 (2.5 µM)
inactive: ABL1 = 0 | AKT1 = 0 | ALK 0 | ARAF 0 | AURKA 0 | AURKB 0 | AURKC 0 | BLK 0 | BMX 0 | BRAF 0

Cc1cc(Nc2cc(N)ncn2)c(=O)n2c1C(=O)NC21CCCCC1 [Tomivosertib] (10 µM)
inactive: ABL1 = 0 | AKT1 = 0 | ALK 0 | ARAF 0 | AURKA 0 | AURKB 0 | AURKC 0 | BLK 0 | BMX 0 | BRAF 0

Cc1nn(C)cc1-c1nc2c(N3CCN(Cc4ccc(Cl)cc4)CC3)c(Cl)cnc2[nH]1 (10 µM)
inactive: ABL1 = 0 | AKT1 = 0 | ALK 0 | ARAF 0 | AURKA 0 | AURKB 0 | AURKC 0 | BLK 0 | BMX 0 | BRAF 0

NC1(C(=O)NCCCn2cc(-c3ccc(OC(F)(F)F)cc3)c3cc(CN4CCN(Cc5c(Cl)cccc5Cl)CC4)ccc32)CCNCC1 (2.5 µM)
inactive: ABL1 = 0 | AKT1 = 0 | ALK 0 | ARAF 0 | AURKA 0 | AURKB 0 | AURKC 0 | BLK 0 | BMX 0 | BRAF 0

Cn1c(=O)c2c(nc(S(C)(=O)=O)n2C)n(CC#Cc2cccc(O)c2)c1=O (2.5 µM)
inactive: ABL1 = 0 | AKT1 = 0 | ALK 0 | ARAF 0 | AURKA 0 | AURKB 0 | AURKC 0 | BLK 0 | BMX 0 | BRAF 0

C=C1CCC[C@]2(C)C=C3OC(=O)C(C)=C3C[C@@H]12 [Atractylenolide I] (10 µM)
inactive: ABL1 = 0 | AKT1 = 0 | ALK 0 | ARAF 0 | AURKA 0 | AURKB 0 | AURKC 0 | BLK 0 | BMX 0 | BRAF 0

NC[C@@](O)(c1ccc(Cl)cc1)c1ccc(-c2cn[nH]c2)cc1 (10 µM)
inactive: ABL1 = 0 | AKT1 = 0 | ALK 0 | ARAF 0 | AURKA 0 | AURKB 0 | AURKC 0 | BLK 0 | BMX 0 | BRAF 0

COc1ccc2c3n(c(=NC(=O)c4cccnc4)nc2c1OC)CCN3 (2 µM)
inactive: ABL1 = 0 | AKT1 = 0 | ALK 0 | ARAF 0 | AURKA 0 | AURKB 0 | AURKC 0 | BLK 0 | BMX 0 | BRAF 0

COC(=O)Nc1ccc(-c2nc(N3CCOCC3)c3cnn(C4CCN(C(=O)OC)CC4)c3n2)cc1 (10 µM)
inactive: ABL1 = 0 | AKT1 = 0 | ALK 0 | ARAF 0 | AURKA 0 | AURKB 0 | AURKC 0 | BLK 0 | BMX 0 | BRAF 0

O=C(NCCN1CCOCC1)Nc1nc2ccc(Sc3nnc4ccc(-c5ccc(F)cc5)nn34)cc2s1 (10 µM)
inactive: ABL1 = 0 | AKT1 = 0 | ALK 0 | ARAF 0 | AURKA 0 | AURKB 0 | AURKC 0 | BLK 0 | BMX 0 | BRAF 0

Fc1ccc2[nH]ccc2c1-c1nc(N2CCOCC2)c2sc(CN3CCN(CC4CC4)CC3)cc2n1 (10 µM)
inactive: ABL1 = 0 | AKT1 = 0 | ALK 0 | ARAF 0 | AURKA 0 | AURKB 0 | AURKC 0 | BLK 0 | BMX 0 | BRAF 0

Nothing new here: 2 of the compounds above.
C=C1CCC[C@]2(C)C=C3OC(=O)C(C)=C3C[C@@H]12 [Atractylenolide I] (10 µM)
inactive: ABL1 = 0 | AKT1 = 0 | ALK 0 | ARAF 0 | AURKA 0 | AURKB 0 | AURKC 0 | BLK 0 | BMX 0 | BRAF 0

NC[C@@](O)(c1ccc(Cl)cc1)c1ccc(-c2cn[nH]c2)cc1 (10 µM)
inactive: ABL1 = 0 | AKT1 = 0 | ALK 0 | ARAF 0 | AURKA 0 | AURKB 0 | AURKC 0 | BLK 0 | BMX 0 | BRAF 0

Going on with the list:

Cn1c2cc([S+](C)[O-])sc2c2cnn(Cc3cccc(N)c3)c(=O)c21 (stereo not given) (2.5 µM)
inactive: ABL1 = 0 | AKT1 = 0 | ALK 0 | ARAF 0 | AURKA 0 | AURKB 0 | AURKC 0 | BLK 0 | BMX 0 | BRAF 0

CC1=C(C(=O)Nc2cc3cn[nH]c3cc2F)C(c2ccc(C(F)(F)F)cc2)CC(=O)N1 (stereo not given) (10 µM)
inactive: ABL1 = 0 | AKT1 = 0 | ALK 0 | ARAF 0 | AURKA 0 | AURKB 0 | AURKC 0 | BLK 0 | BMX 0 | BRAF 0

COc1cc(-c2cc(-c3ccc(N4CCNCC4)cc3)cnc2C)cc(OC)c1OC (10 µM)
inactive: ABL1 = 0 | AKT1 = 0 | ALK 0 | ARAF 0 | AURKA 0 | AURKB 0 | AURKC 0 | BLK 0 | BMX 0 | BRAF 0

CN1CCN(c2ccc(Nc3ncc4cc(C#N)c(=O)n(C5CCCC5)c4n3)cc2)CC1 (10 µM)
inactive: ABL1 = 0 | AKT1 = 0 | ALK 0 | ARAF 0 | AURKA 0 | AURKB 0 | AURKC 0 | BLK 0 | BMX 0 | BRAF 0

C#Cc1cccc(Nc2ncnc3cc(OC)c(NC(=O)N4C[C@H]5CCN(C)[C@H]5C4)cc23)c1 [Theliatinib] (10 µM)
inactive: ABL1 = 0 | AKT1 = 0 | ALK 0 | ARAF 0 | AURKA 0 | AURKB 0 | AURKC 0 | BLK 0 | BMX 0 | BRAF 0

O=C(NCCO)c1cc(C(=O)NCCO)cc(C(=O)NCCO)c1 (10 µM)
inactive: ABL1 = 0 | AKT1 = 0 | ALK 0 | ARAF 0 | AURKA 0 | AURKB 0 | AURKC 0 | BLK 0 | BMX 0 | BRAF 0
